The record followed here is patent US9067898B1, “Isothiazole derivatives as GPR120 agonists for the treatment of type II diabetes” (Janssen Pharmaceutica NV, priority 2014, dated 2015).

The chains behind the UniProt entries cited, without tags or fusion partners. Residues count along the entry.
UniProt Q5NUL3, whole entry: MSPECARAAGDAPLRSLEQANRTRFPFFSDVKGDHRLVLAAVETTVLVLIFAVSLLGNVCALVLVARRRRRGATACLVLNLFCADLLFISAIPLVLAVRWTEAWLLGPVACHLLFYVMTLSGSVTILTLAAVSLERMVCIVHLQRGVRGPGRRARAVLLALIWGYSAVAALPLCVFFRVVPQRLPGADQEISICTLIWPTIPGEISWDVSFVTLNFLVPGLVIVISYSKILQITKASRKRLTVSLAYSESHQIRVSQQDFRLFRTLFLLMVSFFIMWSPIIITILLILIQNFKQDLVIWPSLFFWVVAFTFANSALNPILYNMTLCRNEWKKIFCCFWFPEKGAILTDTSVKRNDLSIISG
UniProt Q5NUL3, 1-377 isoform 1: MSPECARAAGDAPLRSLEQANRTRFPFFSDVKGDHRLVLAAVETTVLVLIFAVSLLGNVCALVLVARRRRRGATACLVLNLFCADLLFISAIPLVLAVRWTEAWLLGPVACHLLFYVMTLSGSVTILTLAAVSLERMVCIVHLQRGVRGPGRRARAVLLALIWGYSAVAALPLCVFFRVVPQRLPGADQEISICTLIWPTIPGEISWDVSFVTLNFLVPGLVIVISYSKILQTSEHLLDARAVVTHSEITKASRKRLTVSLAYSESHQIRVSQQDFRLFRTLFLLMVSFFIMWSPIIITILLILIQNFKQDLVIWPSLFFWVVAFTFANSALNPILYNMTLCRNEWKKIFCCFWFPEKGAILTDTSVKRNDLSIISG
UniProt P32121, whole entry partner: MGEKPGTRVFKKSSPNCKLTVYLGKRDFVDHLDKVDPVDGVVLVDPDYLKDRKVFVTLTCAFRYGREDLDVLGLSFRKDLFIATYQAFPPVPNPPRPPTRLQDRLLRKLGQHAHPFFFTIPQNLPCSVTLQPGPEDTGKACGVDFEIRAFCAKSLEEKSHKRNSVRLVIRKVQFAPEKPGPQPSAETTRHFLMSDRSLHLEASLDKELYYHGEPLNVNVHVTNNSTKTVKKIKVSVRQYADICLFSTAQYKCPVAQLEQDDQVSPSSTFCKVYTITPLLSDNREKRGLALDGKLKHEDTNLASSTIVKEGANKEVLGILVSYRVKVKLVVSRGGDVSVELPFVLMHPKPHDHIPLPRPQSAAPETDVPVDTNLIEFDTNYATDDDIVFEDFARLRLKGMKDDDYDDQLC

Assay [1] addresses long form of human GPR120 (Homo sapiens, UniProt Q5NUL3). Briefly: Human GPR120 DiscoveRx PathHunter Beta-Arrestin assay, Procedure β-arrestin A. The conditions noted are these: read-out: hGPR120 β-arrestin A EC50, PathHunter CHO-K1 GPR120 β-Arrestin cell line, 3000 cells per well. The source says: The binding of an agonist (medium/long chain fatty acids or small molecule agonists) to the G-protein-coupled receptor GPR120 activates phospholipase C, leading to release of intracellular Ca^+2 through the generation of inositol 1,4,5-trisphosphate (InsP3 or IP3). GPR120 activation can also trigger intracellular signaling via recruitment of Beta-Arrestin. In the present method, agonist-induced activation of the human GPR120 receptor is monitored through the use of PathHunter CHO-K1 GPR120 Beta-Arrestin Cell Line engineered by DiscoveRx, as detailed below. The cell lines are designed to co-express both the ProLink/Enzyme Donor (PK)-tagged GPCR and the Enzyme […] (EA)-tagged Beta-Arrestin fusion proteins. […] This active Beta-gal complex can enzymatically hydrolyse the substrate to produce a detectable light signal; therefore, activation as a function of agonist concentration can be expressed as an EC50 value to determine relative compound activities. […]
The plates were read on an EnVision instrument, using Protocol name: Luminescence, Plate type: 384 Costar, Measurement height: 3 mm, Measurement time: 1 s, Aperture: 384 Plate aperture. The % activity relative to the positive control was calculated using the following equation: […]

The target of assay [2] is Human GPR120 short form (Homo sapiens, UniProt Q5NUL3). Briefly: Human GPR120 calcium flux assay (FLIPR), Procedure Calcium A. The note with it: read-out: GPR120 Ca2+ Assay A EC50; HEK-293 cells expressing human GPR120 short form, 2500 cells/well. The source says:
This in vitro assay serves to assess test compound agonist activity against the short splice variant (SVS with Accession number NM_001195755.1 confirmed by sequencing data) of the GPR120 receptor. The Human Short splice variant #2 (NM_001195755.1) is missing an in-frame coding exon compared to variant 1 (the Human Long splice variant NM_181745.3), resulting in a shorter isoform (GPR120-S) lacking a 16 aa protein segment compared to isoform GPR120-L. The assay platform utilizes HEK-293 cells stably transfected to express the Human GPR120 short form. These cells are first loaded with the Ca^+2 sensitive dye, Fluo-4 NW. Upon stimulation, intracellular released Ca^+2 can bind to the dye and alter its fluorescence intensity. This increase in fluorescence signal, and thus the flux in intracellular [Ca^2+], is detected and quantitated by fluorescence imaging using a FLIPR reader. The effect of the agonist is measured as a function of concentration and used to calculate an EC50 based upon a response curve.
In this procedure 2500 cells/well were employed. […]
The assay was performed on a FLIPR plate reader using the following parameters. Baseline was read for 10 seconds at 1 sec intervals. The program was set to transfer 10 μL of ligand from compound plate to cell plate after baseline reading. […] After compound addition, each well was read for 300 sec, with measurements collected at 1 sec intervals. […]

Molecules are shown by their SMILES. The structures given here were assigned with low confidence; some may be wrong.

One may read the EC50 as the midpoint of the concentration-response curve. Turning to `O=C(O)CCc1cc(F)c(OCc2sc(F)cc2-c2ccc(Cl)cc2)c(F)c1`, the concentration giving a half-maximal response (EC50) in assay [1] was 0.209 µM; in assay [2] it was 0.101 µM.

For `Cc1ccc(-c2snc(Cl)c2COc2ccc(CCC(=O)O)c(C(F)(F)F)c2)c(C)c1` [Cpd 256, 3-[4-{[3-Chloro-5-(2,4-dimethylphenyl)isothiazol-4-yl]methoxy}-2-(trifluoromethyl)phenyl]propanoic acid], the EC50 in assay [2] turned out to be 3.23 µM.
